Data from paper PMC3694847.
These are yes or no findings as the source states them, for the method shown. Binding seen in cells or lysates may run through a third protein. For part of these data: A result given as binding can be weak or reduced; the word gives no strength.

Protein sequences, listed by entry. Tags and fused reporters are not part of them. Lines headed by an entry give the natural chain unless they say otherwise; changes in a name come on top.
UniProt Q6P7W0: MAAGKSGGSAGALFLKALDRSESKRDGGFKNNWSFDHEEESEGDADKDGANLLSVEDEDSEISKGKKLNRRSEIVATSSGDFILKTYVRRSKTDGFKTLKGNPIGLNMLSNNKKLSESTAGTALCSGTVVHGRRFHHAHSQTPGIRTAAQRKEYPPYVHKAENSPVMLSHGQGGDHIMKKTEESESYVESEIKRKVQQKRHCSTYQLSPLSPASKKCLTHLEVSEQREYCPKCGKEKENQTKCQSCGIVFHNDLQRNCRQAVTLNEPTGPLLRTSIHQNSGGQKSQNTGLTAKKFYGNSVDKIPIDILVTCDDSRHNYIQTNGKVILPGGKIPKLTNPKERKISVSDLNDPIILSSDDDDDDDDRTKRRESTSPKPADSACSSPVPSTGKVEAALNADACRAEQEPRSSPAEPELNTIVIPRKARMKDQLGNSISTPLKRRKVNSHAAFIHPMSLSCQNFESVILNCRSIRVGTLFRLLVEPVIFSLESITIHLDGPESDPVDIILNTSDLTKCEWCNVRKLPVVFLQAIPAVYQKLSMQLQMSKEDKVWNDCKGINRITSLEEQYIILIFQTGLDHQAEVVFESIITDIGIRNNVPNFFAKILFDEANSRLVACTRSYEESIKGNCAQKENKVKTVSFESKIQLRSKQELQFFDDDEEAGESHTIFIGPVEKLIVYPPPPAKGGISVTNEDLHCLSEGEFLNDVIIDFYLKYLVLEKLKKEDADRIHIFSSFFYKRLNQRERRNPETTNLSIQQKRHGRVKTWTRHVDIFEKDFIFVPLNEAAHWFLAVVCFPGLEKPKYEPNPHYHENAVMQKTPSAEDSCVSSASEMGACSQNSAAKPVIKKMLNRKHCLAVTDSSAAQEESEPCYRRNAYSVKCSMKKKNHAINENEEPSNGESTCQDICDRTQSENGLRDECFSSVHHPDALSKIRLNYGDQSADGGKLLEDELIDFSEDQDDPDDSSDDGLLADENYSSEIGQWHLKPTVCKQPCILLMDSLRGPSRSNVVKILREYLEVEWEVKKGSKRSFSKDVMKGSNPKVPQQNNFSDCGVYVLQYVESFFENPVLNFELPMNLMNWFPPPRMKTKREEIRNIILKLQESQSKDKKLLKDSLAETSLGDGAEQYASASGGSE
UniProt Q80TQ2: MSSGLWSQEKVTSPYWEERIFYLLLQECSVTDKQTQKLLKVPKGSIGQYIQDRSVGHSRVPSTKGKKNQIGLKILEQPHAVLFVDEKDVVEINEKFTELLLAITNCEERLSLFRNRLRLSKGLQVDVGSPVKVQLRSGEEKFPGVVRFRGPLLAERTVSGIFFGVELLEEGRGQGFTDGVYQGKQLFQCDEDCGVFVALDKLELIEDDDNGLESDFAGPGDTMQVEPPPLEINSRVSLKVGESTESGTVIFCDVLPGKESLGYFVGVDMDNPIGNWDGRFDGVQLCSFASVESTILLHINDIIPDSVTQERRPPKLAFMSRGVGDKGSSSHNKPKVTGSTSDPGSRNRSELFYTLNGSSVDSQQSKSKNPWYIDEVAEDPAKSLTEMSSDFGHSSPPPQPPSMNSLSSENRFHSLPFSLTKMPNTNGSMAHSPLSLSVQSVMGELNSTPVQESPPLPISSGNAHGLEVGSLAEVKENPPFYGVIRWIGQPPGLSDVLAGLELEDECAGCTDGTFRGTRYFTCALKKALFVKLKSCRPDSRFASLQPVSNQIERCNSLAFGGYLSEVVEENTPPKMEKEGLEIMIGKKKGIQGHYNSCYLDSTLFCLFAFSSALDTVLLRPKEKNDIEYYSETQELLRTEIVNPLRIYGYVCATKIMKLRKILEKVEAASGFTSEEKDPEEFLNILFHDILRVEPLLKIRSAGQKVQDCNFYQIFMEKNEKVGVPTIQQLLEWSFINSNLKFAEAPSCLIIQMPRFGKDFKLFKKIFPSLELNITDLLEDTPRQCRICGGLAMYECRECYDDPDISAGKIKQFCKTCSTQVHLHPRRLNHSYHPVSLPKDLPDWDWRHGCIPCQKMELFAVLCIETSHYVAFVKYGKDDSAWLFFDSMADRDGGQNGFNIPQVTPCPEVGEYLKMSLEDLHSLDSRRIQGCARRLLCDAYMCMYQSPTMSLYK
UniProt Q9Y6K9: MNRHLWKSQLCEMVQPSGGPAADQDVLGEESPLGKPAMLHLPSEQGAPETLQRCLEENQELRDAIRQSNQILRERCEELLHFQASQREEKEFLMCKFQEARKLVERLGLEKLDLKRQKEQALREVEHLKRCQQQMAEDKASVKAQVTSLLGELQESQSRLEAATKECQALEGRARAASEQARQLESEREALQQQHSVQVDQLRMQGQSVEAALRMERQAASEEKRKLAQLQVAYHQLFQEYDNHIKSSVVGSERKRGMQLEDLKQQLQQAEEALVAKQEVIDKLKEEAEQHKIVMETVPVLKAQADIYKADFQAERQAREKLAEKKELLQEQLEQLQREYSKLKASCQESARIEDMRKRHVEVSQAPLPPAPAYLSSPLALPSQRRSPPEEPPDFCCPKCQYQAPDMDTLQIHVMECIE

Key:
[1] = biological target: GST-SENP6 (UniProt Q6P7W0); assay: pull-down; purified GST fusion (or GST) preloaded on GST resin; incubated 4 h at 4°C with the Ni-NTA eluate (~300 mM imidazole) of extracts of HEK293T cells transfected with tagged NEMO and His-SUMO-3; immunoblot; both purified
[2] = biological target: GST-CYLD (470–684 aa) (UniProt Q80TQ2); assay: pull-down; purified GST fusion preloaded on GST resin; incubated 4 h at 4°C with extracts of HEK293T cells transfected with HA-NEMO or HA-NEMO-SUMO-3; immunoblot; only the target purified
[3] = biological target: GST-CYLD (470–684 aa) (UniProt Q80TQ2); assay: pull-down; purified GST fusion (or GST) preloaded on GST resin; incubated 4 h at 4°C with the Ni-NTA eluate (~300 mM imidazole) of extracts of HEK293T cells transfected with tagged NEMO and His-SUMO-3; immunoblot; both purified

Row | binding [1] | binding [2] | binding [3] | Substance
1 | no binding |  |  | Flag-NEMO K277A (co-expressed with His-SUMO-3) (from UniProt Q9Y6K9 1-419)
2 |  | binds | binds | HA-NEMO (from UniProt Q9Y6K9 1-419)
